Results taken from article PMC4267844, “The Lifestyle Switch Protein Bd0108 of Bdellovibrio bacteriovorus Is an Intrinsically Disordered Protein” (PLoS ONE, 2014).
Results are given in words; binding and its absence hold for the method and conditions named.

Experiments:
[1] = target: Bd0108 (Bdellovibrio bacteriovorus HD100) (UniProt Q6MRH6); assay: SEC; SD75 column; 20 mM Tris pH 7.0 100 mM NaCl 2 mM β-ME; late-eluting species re-run stays a single species; both purified
[2] = target: Bd0108 (Bdellovibrio bacteriovorus HD100) (UniProt Q6MRH6); assay: dynamic light scattering; late-eluting gel filtration peak of Bd0108 at 2 mg/mL; 20 mM Tris pH 7.0 100 mM NaCl 2 mM β-ME; read together with circular dichroism; both purified

B1: Bd0108 (natural protein, Bdellovibrio bacteriovorus HD100)
chain: SHMADENANRPVNPGEDPNEAFRSTPFEATTSALGDCRECIAYRTGATTGKGSRRHDDTVSREIKGSSATPGGSEKAGTGRQ
modifications: disulfide between C56 and C59; 15N-labelled in the NMR titration
notes: tripeptide left on the mature N-terminus after thrombin cleavage of the His tag (cloning artefact); Bd0108 of Bdellovibrio bacteriovorus HD100, a 101 amino acid protein with an N-terminal Sec signal peptide; amino acids 23-101 cloned into pET28b; The assigned cloning artefacts (residues 21 and 22) in the titration point to this cytoplasmic construct and not to the PelB construct; also called …
- binding [1]: no binding
- binding [2]: no binding (tested: 2 mg/mL)
